Assay [1] concerns the target T1, CREB-regulated transcriptional coactivator 2 (mouse (endogenous in primary calvarial osteoblasts)) (UniProt Q3U182).
T1 sequence: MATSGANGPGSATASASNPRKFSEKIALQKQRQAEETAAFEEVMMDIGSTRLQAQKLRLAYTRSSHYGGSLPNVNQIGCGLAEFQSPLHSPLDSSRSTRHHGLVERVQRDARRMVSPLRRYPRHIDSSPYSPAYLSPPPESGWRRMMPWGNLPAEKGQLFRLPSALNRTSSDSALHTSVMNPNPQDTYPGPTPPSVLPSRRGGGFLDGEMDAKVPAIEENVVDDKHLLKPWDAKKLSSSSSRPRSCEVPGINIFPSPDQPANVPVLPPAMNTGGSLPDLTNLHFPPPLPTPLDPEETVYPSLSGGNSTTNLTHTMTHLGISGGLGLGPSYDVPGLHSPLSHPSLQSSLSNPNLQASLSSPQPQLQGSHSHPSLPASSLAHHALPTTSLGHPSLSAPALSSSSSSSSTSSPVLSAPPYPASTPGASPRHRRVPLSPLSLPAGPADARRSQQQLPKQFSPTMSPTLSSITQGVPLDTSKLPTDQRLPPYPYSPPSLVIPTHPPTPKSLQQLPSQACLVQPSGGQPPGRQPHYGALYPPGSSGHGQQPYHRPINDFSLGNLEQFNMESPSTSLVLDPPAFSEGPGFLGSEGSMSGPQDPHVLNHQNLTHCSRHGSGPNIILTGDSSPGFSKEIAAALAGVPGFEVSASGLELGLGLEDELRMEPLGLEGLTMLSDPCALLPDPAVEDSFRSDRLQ
The experiment in a line: co-IP; as a1, the samples of cells treated with 10 nM PTH (1-34) for 15 min, in which the SIK-CRTC2 interaction is mostly lost.

By UniProt entry, the sequences of proteins in these tests, tags left out.
UniProt Q6P4S6: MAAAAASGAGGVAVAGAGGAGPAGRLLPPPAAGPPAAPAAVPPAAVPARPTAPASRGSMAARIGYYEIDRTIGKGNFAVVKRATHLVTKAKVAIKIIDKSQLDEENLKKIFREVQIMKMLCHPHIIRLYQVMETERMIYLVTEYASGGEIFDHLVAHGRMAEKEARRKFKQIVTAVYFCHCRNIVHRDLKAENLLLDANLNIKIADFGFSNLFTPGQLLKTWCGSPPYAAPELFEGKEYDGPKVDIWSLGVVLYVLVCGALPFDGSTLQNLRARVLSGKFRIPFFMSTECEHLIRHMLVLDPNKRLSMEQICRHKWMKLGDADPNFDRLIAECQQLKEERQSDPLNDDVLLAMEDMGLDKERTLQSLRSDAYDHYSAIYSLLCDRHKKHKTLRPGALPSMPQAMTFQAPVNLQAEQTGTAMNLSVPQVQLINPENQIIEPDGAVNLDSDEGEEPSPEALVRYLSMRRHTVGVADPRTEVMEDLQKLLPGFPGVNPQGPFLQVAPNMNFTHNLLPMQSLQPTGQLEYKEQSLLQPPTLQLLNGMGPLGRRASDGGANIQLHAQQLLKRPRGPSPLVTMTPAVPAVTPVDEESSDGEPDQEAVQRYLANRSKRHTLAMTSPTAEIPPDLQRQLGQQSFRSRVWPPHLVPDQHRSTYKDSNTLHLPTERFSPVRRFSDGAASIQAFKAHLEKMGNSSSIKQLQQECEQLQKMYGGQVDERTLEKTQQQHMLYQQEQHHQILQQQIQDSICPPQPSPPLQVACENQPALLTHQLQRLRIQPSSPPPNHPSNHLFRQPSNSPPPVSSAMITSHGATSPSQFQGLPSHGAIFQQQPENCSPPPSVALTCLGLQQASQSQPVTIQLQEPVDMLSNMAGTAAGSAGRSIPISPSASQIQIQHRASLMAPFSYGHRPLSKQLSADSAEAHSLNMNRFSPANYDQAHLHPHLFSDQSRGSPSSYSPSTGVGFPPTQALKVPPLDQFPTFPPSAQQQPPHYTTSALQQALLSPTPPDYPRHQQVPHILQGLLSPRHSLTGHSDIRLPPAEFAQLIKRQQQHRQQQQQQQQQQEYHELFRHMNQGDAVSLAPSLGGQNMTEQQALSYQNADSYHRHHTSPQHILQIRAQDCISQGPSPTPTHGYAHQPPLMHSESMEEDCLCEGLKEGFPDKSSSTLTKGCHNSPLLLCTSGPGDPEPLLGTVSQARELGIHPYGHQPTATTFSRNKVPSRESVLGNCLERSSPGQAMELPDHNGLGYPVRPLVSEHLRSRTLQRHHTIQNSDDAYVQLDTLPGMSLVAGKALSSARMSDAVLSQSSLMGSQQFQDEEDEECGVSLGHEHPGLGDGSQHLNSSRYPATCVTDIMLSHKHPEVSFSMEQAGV
UniProt Q8CFH6: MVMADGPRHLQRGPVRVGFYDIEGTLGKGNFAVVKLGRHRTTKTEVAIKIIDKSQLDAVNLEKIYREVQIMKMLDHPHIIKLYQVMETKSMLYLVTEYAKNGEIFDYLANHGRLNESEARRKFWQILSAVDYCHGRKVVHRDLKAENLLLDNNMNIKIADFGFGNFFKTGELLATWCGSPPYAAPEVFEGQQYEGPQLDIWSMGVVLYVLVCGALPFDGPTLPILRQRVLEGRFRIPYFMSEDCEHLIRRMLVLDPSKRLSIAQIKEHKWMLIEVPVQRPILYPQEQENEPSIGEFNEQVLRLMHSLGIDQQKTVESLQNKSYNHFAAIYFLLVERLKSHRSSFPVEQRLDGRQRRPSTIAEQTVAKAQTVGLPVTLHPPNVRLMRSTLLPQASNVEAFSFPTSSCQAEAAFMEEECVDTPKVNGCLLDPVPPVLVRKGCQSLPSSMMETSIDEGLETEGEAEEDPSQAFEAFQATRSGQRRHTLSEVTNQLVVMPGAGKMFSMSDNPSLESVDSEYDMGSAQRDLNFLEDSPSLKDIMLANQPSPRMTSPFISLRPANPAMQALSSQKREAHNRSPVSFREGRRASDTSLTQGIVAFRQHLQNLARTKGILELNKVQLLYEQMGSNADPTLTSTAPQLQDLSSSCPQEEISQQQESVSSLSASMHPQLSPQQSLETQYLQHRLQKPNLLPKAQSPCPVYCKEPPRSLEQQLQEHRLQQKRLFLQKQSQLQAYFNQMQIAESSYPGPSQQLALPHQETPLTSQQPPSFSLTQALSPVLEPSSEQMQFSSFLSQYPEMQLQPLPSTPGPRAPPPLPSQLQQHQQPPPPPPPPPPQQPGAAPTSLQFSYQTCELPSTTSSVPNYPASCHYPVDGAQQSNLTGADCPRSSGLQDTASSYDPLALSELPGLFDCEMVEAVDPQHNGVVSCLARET

In assay [2] the target is T1, CREB-regulated transcriptional coactivator 2 (mouse (endogenous in primary calvarial osteoblasts)). The experiment in a line: co-IP; endogenous proteins; lysates of mature primary mouse calvarial osteoblasts, basal or treated with 10 nM PTH (1-34) for 15 min; lysis buffer 0.5% Nonidet P-40, 50 mM Tris pH 8.0, 150 mM NaCl, 1 mM EDTA; antibody and protein AG-agarose overnight at 4 °C; immunoblot.

For assay [3], the target named is Salt-inducible kinase 3 (mouse (endogenous in primary calvarial osteoblasts)) (UniProt Q6P4S6). The assay is described as follows: co-IP; as a1, the samples of cells treated with 10 nM PTH (1-34) for 15 min, in which the SIK-CRTC2 interaction is mostly lost.
Assay [4] addresses Salt-inducible kinase 2 (mouse (endogenous in primary calvarial osteoblasts)) (UniProt Q8CFH6). The assay is described as above.
The target in assay [5] is Salt-inducible kinase 3 (mouse (endogenous in primary calvarial osteoblasts)) (UniProt Q6P4S6). The assay is described as follows: co-IP; endogenous proteins; lysates of mature primary mouse calvarial osteoblasts, basal or treated with 10 nM PTH (1-34) for 15 min; lysis buffer 0.5% Nonidet P-40, 50 mM Tris pH 8.0, 150 mM NaCl, 1 mM EDTA; antibody and protein AG-agarose overnight at 4 °C; immunoblot.

Assay [6] addresses Salt-inducible kinase 2 (mouse (endogenous in primary calvarial osteoblasts)) (UniProt Q8CFH6). The description is as above.

No constants are given. Whether binding was seen depends on the method and setting. In cells and extracts the contact can be indirect. Some results given as binding are weak or reduced against the parent protein; the word gives no strength.

As for “Salt-inducible kinase 2 (from UniProt Q8CFH6 1-931) (enzyme)”, the binding entry in assay [1] is recorded as “binds weakly”; in assay [2] it was “binds”.

B1: CREB-regulated transcriptional coactivator 2 (protein, UniProt Q3U182 1-692)
chain: T1 sequence
With B1, the binding entry is on record as “binds weakly” in assay [3], “binds weakly” in assay [4], “binds” in assay [5] and “binds” in assay [6].

B2: protein phosphatase 5 (enzyme, UniProt Q60676 1-499)
chain: MAMAEGERTECAETPRDEPPADGTLKRAEELKTQANDYFKAKDYENAIKFYSQAIELNPGNAIYYGNRSLAYLRTECYGYALGDATRAIELDKKYIKGYYRRAASNMALGKFRAALRDYETVVKVKPNDKDAKMKYQECSKIVKQKAFERAIAGDEHRRSVVDSLDIESMTIEDEYSGPKLEDGKVTITFMKDLMQWYKDQKKLHRKCAYQILVQVKEVLCKLSTLVETTLKETEKITVCGDTHGQFYDLLNIFELNGLPSETNPYIFNGDFVDRGSFSVEVILTLFGFKLLYPDHFHLLRGNHETDNMNQIYGFEGEVKAKYTAQMYELFSEVFEWLPLAQCINGKVLIMHGGLFSEDGVTLDDIRKIERNRQPPDSGPMCDLLWSDPQPQNGRSVSKRGVSCQFGPDVTKAFLEENQLDYIIRSHEVKAEGYEVAHGGRCVTVFSAPNYCDQMGNKASYIHLQGSDLRPQFHQFTAVPHPNVKPMAYANTLLQLGMM
For the molecule B2, the binding result in assay [2] is listed as “binds”.

B3: protein phosphatase 4 (enzyme, UniProt P97470 1-307)
chain: MAEISDLDRQIEQLRRCELIKESEVKALCAKAREILVEESNVQRVDSPVTVCGDIHGQFYDLKELFRVGGDVPETNYLFMGDFVDRGFYSVETFLLLLALKVRYPDRITLIRGNHESRQITQVYGFYDECLRKYGSVTVWRYCTEIFDYLSLSAIIDGKIFCVHGGLSPSIQTLDQIRTIDRKQEVPHDGPMCDLLWSDPEDTTGWGVSPRGAGYLFGSDVVAQFNAANDIDMICRAHQLVMEGYKWHFNETVLTVWSAPNYCYRCGNVAAILELDEHLQKDFIIFEAAPQETRGIPSKKPVADYFL
As to B3, in assay [2], the binding entry is recorded as “binds”.

Source of the values: PMC12359225.
